Test results as given in patent publication US12491217B2, “Compositions and methods for promoting healthy neural development in an unborn baby” (The Regents of the University of California, priority 2019, dated 2025).

Test: Metabolomics of fetal brain at E14.5
Type: in vivo, C57Bl/6J mice
Settings: metabolite level in E14.5 fetal brain; for fold of change ABX/SPF: ANOVA contrast ABX/SPF; for fold of change GF/ABX: ANOVA contrast GF/ABX; for fold of change GF/SPF: ANOVA contrast GF/SPF; for fold of change GF/Sp: ANOVA contrast GF/Sp; for fold of change Sp/ABX: ANOVA contrast Sp/ABX; for fold of change Sp/SPF: ANOVA contrast Sp/SPF

Compound | fold of change ABX/SPF | fold of change GF/ABX | fold of change GF/SPF | fold of change GF/Sp | fold of change Sp/ABX | fold of change Sp/SPF
NCCCC(=O)O [compound 54] | 0.75 | 0.96 | 0.72 | 0.90 | 1.06 | 0.80
O=C(O)CCCNCCC(=O)O [compound 55] | 0.88 | 0.68 | 0.60 | 0.72 | 0.94 | 0.83
CNCCCC(=O)O [compound 56] | 1.22 | 0.59 | 0.72 | 0.95 | 0.62 | 0.76
O=C(O)[C@@H]1CCC=N1 [compound 59] | 1.70 | 0.37 | 0.63 | 0.78 | 0.47 | 0.81
N[C@@H](Cc1c[nH]cn1)C(=O)O [compound 65] | 1.14 | 0.85 | 0.96 | 1.00 | 0.85 | 0.96
Cn1cnc(C[C@H](N)C(=O)O)c1 [compound 66] | 1.35 | 0.60 | 0.81 | 1.00 | 0.60 | 0.81
Cn1cncc1C[C@H](N)C(=O)O [compound 67] | 1.01 | 0.70 | 0.70 | 0.96 | 0.72 | 0.73
CC(=O)N[C@@H](Cc1c[nH]cn1)C(=O)O [compound 68] | 0.94 | 1.08 | 1.02 | 1.46 | 0.74 | 0.70
O=C(O)CCc1c[nH]cn1 [compound 74] | 0.33 | 0.99 | 0.33 | 0.20 | 4.81 | 1.60
N=CN[C@@H](CCC(=O)O)C(=O)O [compound 75] | 1.80 | 0.85 | 1.53 | 1.26 | 0.68 | 1.22
O=C(O)C(O)Cc1cnc[nH]1 (stereo not drawn) [compound 76] | 0.81 | 0.94 | 0.76 | 0.84 | 1.11 | 0.90
NCCC(=O)N[C@@H](Cc1cnc[nH]1)C(=O)O [compound 77] | 0.34 | 1.53 | 0.52 | 1.33 | 1.15 | 0.39
Cn1cncc1C[C@H](NC(=O)CCN)C(=O)O [compound 80] | 0.40 | 1.04 | 0.42 | 0.51 | 2.04 | 0.82
Cn1cnc(CCN)c1 [compound 82] | 0.27 | 0.82 | 0.22 | 0.53 | 1.54 | 0.42
Cn1cnc(CC(=O)O)c1 [compound 83] | 0.36 | 1.15 | 0.41 | 0.81 | 1.42 | 0.51
O=C(O)Cc1cn([C@@H]2O[C@H](CO)[C@@H](O)[C@H]2O)cn1 [compound 84] | 0.43 | 0.85 | 0.36 | 1.11 | 0.76 | 0.33
NCCCC[C@H](N)C(=O)O [compound 92] | 0.90 | 1.04 | 0.94 | 1.06 | 0.98 | 0.89
CC(=O)N[C@@H](CCCCN)C(=O)O [compound 93] | 0.49 | 1.18 | 0.58 | 0.66 | 1.80 | 0.88
CNCCCC[C@H](N)C(=O)O [compound 99] | 0.64 | 0.89 | 0.57 | 0.66 | 1.35 | 0.86

Compound | fold of change ABX/SPF | fold of change GF/ABX | fold of change GF/SPF | fold of change GF/Sp | fold of change Sp/ABX | fold of change Sp/SPF
CN(C)CCCC[C@H](N)C(=O)O [compound 100] | 0.57 | 0.99 | 0.57 | 0.76 | 1.30 | 0.75
C[N+](C)(C)CCCC[C@H](N)C(=O)O [compound 101] | 0.61 | 1.06 | 0.65 | 0.90 | 1.19 | 0.73
NCC(O)CC[C@H](N)C(=O)O (stereo partly drawn) [compound 102] | 0.79 | 0.83 | 0.66 | 1.00 | 0.83 | 0.66
NCC(CC[C@H](N)C(=O)O)OC1O[C@H](CO)[C@H](O)[C@H](O)[C@H]1O (stereo partly drawn) [compound 103] | 0.77 | 1.06 | 0.82 | 0.99 | 1.07 | 0.82
NC(CCCC(=O)O)C(=O)O (stereo not drawn) [compound 105] | 1.05 | 1.02 | 1.07 | 1.27 | 0.80 | 0.85
O=C(O)CCCC(=O)C(=O)O [compound 107] | 1.09 | 1.38 | 1.50 | 1.49 | 0.93 | 1.01
O=C(O)C1CCCCN1 (stereo not drawn) [compound 113] | 0.57 | 0.83 | 0.47 | 0.63 | 1.32 | 0.75
O=C1CCCC(C(=O)O)N1 (stereo not drawn) [compound 114] | 1.02 | 1.66 | 1.70 | 1.77 | 0.94 | 0.96
NCCCCC(=O)O [compound 117] | 0.85 | 0.71 | 0.60 | 0.62 | 1.16 | 0.98
C[N+](C)(C)CCCCC(=O)[O-] [compound 119] | 0.09 | 1.71 | 0.16 | 0.09 | 19.45 | 1.79
N[C@@H](Cc1ccccc1)C(=O)O [compound 120] | 0.82 | 0.96 | 0.79 | 0.88 | 1.10 | 0.90
CC(=O)N[C@@H](Cc1ccccc1)C(=O)O [compound 121] | 0.83 | 0.98 | 0.81 | 0.74 | 1.31 | 1.09
CC(N[C@@H](Cc1ccccc1)C(=O)O)C(=O)O (stereo partly drawn) [compound 122] | 0.79 | 1.03 | 0.82 | 0.87 | 1.19 | 0.95
O=C(O)C(O)Cc1ccccc1 (stereo not drawn) [compound 126] | 0.60 | 0.96 | 0.58 | 0.79 | 1.22 | 0.73
N[C@@H](Cc1ccc(O)cc1)C(=O)O [compound 137] | 0.89 | 0.90 | 0.79 | 0.82 | 1.10 | 0.97
CC(=O)N[C@@H](Cc1ccc(O)cc1)C(=O)O [compound 138] | 0.75 | 0.70 | 0.52 | 0.61 | 1.14 | 0.85
O=C(O)C(O)Cc1ccc(O)cc1 (stereo not drawn) [compound 150] | 0.81 | 0.97 | 0.79 | 0.78 | 1.24 | 1.01
O=S(=O)(O)Oc1ccccc1 [compound 154] | 0.44 | 1.00 | 0.44 | 0.70 | 1.43 | 0.63
